# System: DU-145
# Assay: CCK-8 proliferation, DU-145
# Assay type: cell-based
# Conditions: Homo sapiens, DU-145, 96 h, read-out: Inhibitory activity (IC50) on tumor cell proliferation, DU-145
# Experimental: The tumor cells used herein were cultured in a cell culture medium listed in table A1 at 37°C in an incubator with 5% CO2. Prior to experimentation, all cell lines used were correctly identified by STR profiling, and tested negative for mycoplasma contamination using a mycoplasma detection kit through routine screenings. Table A1. Tumor cells and cell culture medium used in the present disclosure
# IC50 values of the compounds of the present disclosure (including the compounds in Table 1, and compounds of examples) were measured using the Meilun Cell Counting Kit-8 kit from Dalian Meilun Biotech Co., Ltd. Assay details are as follows: tumor cells were seeded in a 96-well plate at a density listed in Table A2. After 24h, 100 µL of the inoculated cells were treated with 0.5µL of the compounds of the present disclosure (including the compounds in Tables 1 and 2, and compounds of examples) at 10 different successively decreasing concentrations (starting at the highest concentration of 10µM; 5-fold serial dilutions). […] The growth inhibition of the compounds of the present disclosure on cells was plotted by Prism Graphpad software, and the IC50 values of the compounds of the present disclosure were calculated therefrom. […]
smiles,measurement,value
CNC(=O)c1ccc(N2C(=S)N(c3ccc(C#N)c(C(F)(F)F)c3)C(=O)C2(C)C)cc1F [Enzalutamide],IC50,1 to 5 µM
